Test: general procedure: Fmoc solid-phase peptide synthesis; Rink amide resin for C-terminal amides; [3-({ethyl-Fmoc-amino}-methyl)-indol-1-yl]-acetyl AM resin for C-terminal ethyl; DCC/HOBt or HBTU/DIEA (FastMoc)
Conditions: late stage modification step; for final HPLC purity: analytical HPLC and mass spectral analysis

For “cyclo[Phe-Tyr-Lys(iPr)-DArg-2Nal-Gly-DGlu]-Lys (iPr)-NHEt”, the “final HPLC purity” value was 99.16%.
In the case of “cyclo[Phe-Tyr-Lys(iPr)-DArg-2Nal-Gly-DGlu]-Lys(iPr)-NH2”, the “final HPLC purity” value (run 1) is reported as 97.5%, the “final HPLC purity” value (run 2) is reported as 96.5% and the step yield (recovery yield) is reported as 90% or higher.
In the case of “cyclo[Phe-Tyr-Lys(iPr-d6)-DArg-2Nal-Gly-DGlu]-Lys(iPr-d6)-NH2”, the “final HPLC purity” value is reported as 99.9%.

— patent publication USRE42274E1 (Eli Lilly and Company, priority 2007, dated 2011)
